For at least one compound, name, drawing or mass did not settle the structure.
Assays:
[1] = test system: MCF-7 cells; experiment: E2-induced cell proliferation, 3H-thymidine incorporation, signal transduction modulators alone (FIG. 2); type: cell-based, human; details: for blocking of cancer cell proliferation: 5 μM (=2.05 μg/ml)
[2] = test system: MCF-7 cells; experiment: Effect of geldanamycin (GM) on antiestrogenic activity of plant essential oil compounds against E2-induced cell growth (FIG. 4); type: cell-based, human; details: GM 10 ng/ml, 10 nM estrogen
Procedure: MCF-7 cells were cultured in growth medium supplemented with 10% fetal bovine serum (FBS). At 85% confluence, cells were sub-cultured in 6 well petri-dishes medium supplemented with 5% FBS serum stripped medium, phenol red free for 24 hours prior to the treatment of different concentrations of the test chemicals. Cells were either counted (5 days after treatment) or used to determine cell proliferation (24 hr after treatment) using ^3H-thymidine incorporation. To count the cell, cells were trypsinized, and collected using Eppendorf microcentrifuge. The cell pellets were resuspended in 1% trypan blue and three aliquots (10 ul each) of the viable cell suspension was counted using a haemocytometer assay. Each sample was then counted three times to obtain an average count. For thymidine incoroporation, 24 hr after cell treated with test mixture, cells were incubated with 1 uCi ^3H-thymidine. After 2 hr, the medium was withdrawn and the cells were washed with thymidine-free medium and 10% TCA prior to radioactive count. Plant essential oil compounds were tested in the presence of 10 nM estrogen (=2.7 ng estrogen/ml) using three wells per test concentration. This experiment was repeated two times. A control sample received solvent only at <0.1% ethanol. […]

SMILES | blocking of cancer cell proliferation ([1]; in the absence of E2, 24 hr) | blocking of cancer cell proliferation ([1]; in the presence of E2, 24 hr) | antagonism of E2-induced incorporation of 3H-thymidine ([1]; 10 nM estrogen, 24 hr) | effect of GM alone on E2-induced cell growth [2]
C=C[C@@]1(C)CC(=O)[C@]2(O)[C@@]3(C)[C@@H](O)CCC(C)(C)[C@@H]3[C@H](O)[C@H](OC(C)=O)[C@@]2(C)O1 [FK, forskolin] | capable of blocking cancer cell proliferation | capable of blocking cancer cell proliferation | – | –
COC1=C2C[C@@H](C)C[C@H](OC)[C@H](O)[C@@H](C)/C=C(\C)[C@H](OC(N)=O)[C@@H](OC)/C=C\C=C(/C)C(=O)NC(=CC1=O)C2=O [GM, geldanamycin, reference compound] | – | – | did not antagonize | potentiates the antiestrogenic activity

— patent publication US7008649B2, “Cancer treatment composition and method using natural plant essential oils with signal transduction modulators” (Ecosmart Techonlogies, Inc., priority 1998, dated 2006)
